# According to PMC7819943, “Rice protein-binding microarrays: a tool to detect cis-acting elements near promoter regions in rice”:
# Amino acid sequences for entries named in this document (tags omitted).
# UniProt Q0JBA9, entry or part of it: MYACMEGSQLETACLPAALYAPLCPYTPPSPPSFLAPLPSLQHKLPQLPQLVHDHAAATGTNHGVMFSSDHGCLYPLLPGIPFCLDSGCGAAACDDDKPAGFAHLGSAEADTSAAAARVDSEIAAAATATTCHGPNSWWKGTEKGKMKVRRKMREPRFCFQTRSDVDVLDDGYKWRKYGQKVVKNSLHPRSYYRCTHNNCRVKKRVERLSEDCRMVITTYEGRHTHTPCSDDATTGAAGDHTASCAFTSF
# The list shows a part of the results.
# Biological target: OsWRKY34 (Oryza sativa, UniProt Q0JBA9 1-250)
# Test: protein-binding microarray (RPBM); PBS, 2% BSA, 51.3 ng/ul salmon testes DNA, 50 uM zinc acetate, 200 nM TF, 25 C, 1 h; high values mean tight binding
# Conditions: protein: recombinant; tags: N-terminal polyhistidine and DsRed monomer fusion (pET32a); label: CyDye5-dUTP incorporated in the synthesized complementary strand; 3' TTTTT single-stranded linker to array surface; dsDNA, one strand shown
# Outline: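 Binding signal here means per-feature fluorescence intensity in arbitrary units. The values were read on an Axon 4000B scanner after a custom Agilent array, double-stranded by primer extension with Cy5-dUTP, was incubated with 200 nM protein at 25 °C for 1 h in PBS with 2% BSA, salmon testes DNA and 50 µM zinc acetate, then washed. The proteins were transcription factors with an N-terminal polyhistidine tag and DsRed, expressed in E. coli BL21-CodonPlus and purified on Ni–NTA.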
row,Sequence,binding signal
1,TCTATATCTGGTTTTGCATCCCTCAACCGTAAACCAAATACGGAGTCACCTAGTGCAG,8570 fluorescence intensity (a.u.)
2,TACATACACTTATTTTCGACATTGTATTCTATAATTATAGCGGAGTCACCTAGTGCAG,9800 fluorescence intensity (a.u.)
3,CCCGCTTCCTGCCATACATGCATTTTGGTCCTAGTAATCACGGAGTCACCTAGTGCAG,8290 fluorescence intensity (a.u.)
4,GCAGAAGCAGGCAGTCCATCGATCATCTCTTCTCTTCCAGCGGAGTCACCTAGTGCAG,9410 fluorescence intensity (a.u.)
5,TCGAACTGATCCAACGTACCAGAATTCGCTAGTTTCTTATCGGAGTCACCTAGTGCAG,8620 fluorescence intensity (a.u.)
6,CAGTCCATTTTTACAAAGTTGCGGGTTGGTTCCTGAACTACGGAGTCACCTAGTGCAG,8680 fluorescence intensity (a.u.)
7,GATTCTCCAGTTGATTTATGCTCTCTTTCACTGACCAAACCGGAGTCACCTAGTGCAG,8080 fluorescence intensity (a.u.)
8,ACTGGCTTTGCTATGATCTTTTGCTATCGCCCAACCGTTACGGAGTCACCTAGTGCAG,8690 fluorescence intensity (a.u.)
9,TCGTGTCCTCTCTTCAGCCACACACGCGCCCACCTCGCCGCGGAGTCACCTAGTGCAG,8500 fluorescence intensity (a.u.)
10,TCATCACCCACCGGGCTTTCCTGACACGGCCCATTTACTACGGAGTCACCTAGTGCAG,9970 fluorescence intensity (a.u.)
11,TGCGATTACGGCGGCTACCCTTCTTGTTCTTCATGGATGACGGAGTCACCTAGTGCAG,8590 fluorescence intensity (a.u.)
12,TGTTTTATGCATGCTGCGTTATCTGCTCTTATTCAAACTCCGGAGTCACCTAGTGCAG,8650 fluorescence intensity (a.u.)
13,GTTTAATGGGTTGATGTGGCATGCTTACATATAGGTTTTACGGAGTCACCTAGTGCAG,10300 fluorescence intensity (a.u.)
14,GGTAGGGTTTGCGTGCGTGTGTTCATAGGGTGAGTGCGCGCGGAGTCACCTAGTGCAG,8680 fluorescence intensity (a.u.)
15,ATCCCAATTTATGTGTGACCATTACAATGTGTTTGACAATCGGAGTCACCTAGTGCAG,8360 fluorescence intensity (a.u.)
16,GCCGGTCCATTCTCCGCCCTTCACCGCCTCCGTTGCCGGCCGGAGTCACCTAGTGCAG,9320 fluorescence intensity (a.u.)
17,ACTATTTCTCACTGGAATGTTATATACTTCTGGAATATTCCGGAGTCACCTAGTGCAG,8680 fluorescence intensity (a.u.)
18,AGACACAGCACACCCACTCACTCTGCTCACTCTCCCATACCGGAGTCACCTAGTGCAG,10200 fluorescence intensity (a.u.)
19,TCCGTTTTTTAATAGATGACGCCGTTGACTTTTTCTCACACGGAGTCACCTAGTGCAG,31700 fluorescence intensity (a.u.)
20,CTAGCATGGTGTTCCCCTCCATCTTTTATTCATTATCTGCCGGAGTCACCTAGTGCAG,8520 fluorescence intensity (a.u.)
21,ACTCCAAGACACAGTGTGTATGACAGGTGGGACCAGATATCGGAGTCACCTAGTGCAG,8210 fluorescence intensity (a.u.)

row,Sequence,binding signal
1,TGGAGGAGGGGAGGCCGGGGATTGTTTTTATAGGGGAGGGCGGAGTCACCTAGTGCAG,30500 fluorescence intensity (a.u.)
2,ACACCACACCACACGTCCACACCACACCACGACTCGACGGCGGAGTCACCTAGTGCAG,8780 fluorescence intensity (a.u.)
3,CCTGAGCCGGCCCAGCCACCAGATGGTCTTCTTCTTCCTTCGGAGTCACCTAGTGCAG,9020 fluorescence intensity (a.u.)
4,ATACGCGCCCATCCCTGCGTCCTTGCACTTGCGCACCCACCGGAGTCACCTAGTGCAG,9850 fluorescence intensity (a.u.)
5,GACTATGCAATTGTTTTTAATTTTGGTTGTGCTTATGTTGCGGAGTCACCTAGTGCAG,10900 fluorescence intensity (a.u.)
6,AATTTGTTTGAACCTGTGCCGGACTACTCCTACGAGGCATCGGAGTCACCTAGTGCAG,9600 fluorescence intensity (a.u.)
7,GCGCCTTTCAATTTGCAATTATTTCTCTTGCCTATGTTTTCGGAGTCACCTAGTGCAG,13200 fluorescence intensity (a.u.)
8,GCTGGTTTGATTAGATCTTCATCCCACGTGGCATTGACGTCGGAGTCACCTAGTGCAG,9470 fluorescence intensity (a.u.)
9,GCGCCATCTCCATCTCCACCTCCACATCCCTACTAGTATACGGAGTCACCTAGTGCAG,9760 fluorescence intensity (a.u.)
10,TTTGTCTCGTGAATTAGCTTTTATTTATGTAATTAGTTTTCGGAGTCACCTAGTGCAG,8400 ± 235 fluorescence intensity (a.u.)
11,TCCATTTGTCATCCCTCATCTTTCTGTCCATTATGTTTAACGGAGTCACCTAGTGCAG,8980 fluorescence intensity (a.u.)
12,TTGGTCGTGTGTATAATATTTTCCTTTTGAAATTTACTCTCGGAGTCACCTAGTGCAG,11500 fluorescence intensity (a.u.)
13,CTGGCTACAGATCTGTAGTCCACTGCTCTTCTCTTTCTTCCGGAGTCACCTAGTGCAG,10000 fluorescence intensity (a.u.)
14,TTCCTTTTCTCCGCGCGCTTTCCGCTGGCCTTCGCTACTCCGGAGTCACCTAGTGCAG,8350 fluorescence intensity (a.u.)
15,AGTTTTTGTTTGTAATATATGATCATTCGTTTTATTAAAACGGAGTCACCTAGTGCAG,9280 fluorescence intensity (a.u.)
16,CTTGCCGCGCGCGCCCGCCCGCCCGCCCGCGCCCACCGGCCGGAGTCACCTAGTGCAG,8520 fluorescence intensity (a.u.)
17,ATCATCCCCGTATTCCCGTGTGCCAGTCGACCAAACGCGTCGGAGTCACCTAGTGCAG,11200 fluorescence intensity (a.u.)
18,ACAATCATTTGCCACCCAATTCTTTTTATTGCCAAAACTCCGGAGTCACCTAGTGCAG,8210 fluorescence intensity (a.u.)
19,CATTCACAACTTCACAAGCATTCTTTCCTAATTTTCTTTCCGGAGTCACCTAGTGCAG,12300 fluorescence intensity (a.u.)
20,CTCACCGCAATTCTGTCCCCAATCCAGTGTCATTTGACTCCGGAGTCACCTAGTGCAG,10700 fluorescence intensity (a.u.)
21,CGGGGCGTGAGGGGTTATGAGTATATTTGTATTTTTTTTTCGGAGTCACCTAGTGCAG,18400 fluorescence intensity (a.u.)

# An excerpt of these results, as tab-separated lines:
row	Sequence	binding signal
7	GCGCCTTTCAATTTGCAATTATTTCTCTTGCCTATGTTTTCGGAGTCACCTAGTGCAG	13200 fluorescence intensity (a.u.)
19	CATTCACAACTTCACAAGCATTCTTTCCTAATTTTCTTTCCGGAGTCACCTAGTGCAG	12300 fluorescence intensity (a.u.)
21	CGGGGCGTGAGGGGTTATGAGTATATTTGTATTTTTTTTTCGGAGTCACCTAGTGCAG	18400 fluorescence intensity (a.u.)
